For test [1], the target named is Rubella virus E1 envelope glycoprotein (Rubella virus (RuV)) (UniProt P08563). The test can be described thus: co-IP; no cross-linker; lysates of BHK-21 cells 42 h post-electroporation with WT or E2 Y281A viral RNA; lysis buffer 1 (50 mM TRIS pH 7.4, 100 mM NaCl, 1 mM EDTA, 1% Triton X-100); precleared, mAb E1-20 on ice 1 h, Protein A agarose 90 min at 4°C; western blot with RuV pAb.

The chains behind the UniProt entries cited, without tags or fusion partners. Residues count along the entry.
Rubella virus E2 envelope glycoprotein, wild type (P08563, residues 301-582): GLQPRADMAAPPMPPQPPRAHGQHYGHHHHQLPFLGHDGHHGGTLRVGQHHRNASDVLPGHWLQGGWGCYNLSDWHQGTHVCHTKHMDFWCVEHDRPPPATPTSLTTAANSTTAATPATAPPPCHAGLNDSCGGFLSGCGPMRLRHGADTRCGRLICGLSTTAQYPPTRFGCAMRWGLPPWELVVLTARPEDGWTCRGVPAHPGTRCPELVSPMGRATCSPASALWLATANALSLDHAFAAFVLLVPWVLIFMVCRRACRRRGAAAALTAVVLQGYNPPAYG
Rubella virus E1 envelope glycoprotein (Rubella virus (RuV)) (P08563, residues 583-1063): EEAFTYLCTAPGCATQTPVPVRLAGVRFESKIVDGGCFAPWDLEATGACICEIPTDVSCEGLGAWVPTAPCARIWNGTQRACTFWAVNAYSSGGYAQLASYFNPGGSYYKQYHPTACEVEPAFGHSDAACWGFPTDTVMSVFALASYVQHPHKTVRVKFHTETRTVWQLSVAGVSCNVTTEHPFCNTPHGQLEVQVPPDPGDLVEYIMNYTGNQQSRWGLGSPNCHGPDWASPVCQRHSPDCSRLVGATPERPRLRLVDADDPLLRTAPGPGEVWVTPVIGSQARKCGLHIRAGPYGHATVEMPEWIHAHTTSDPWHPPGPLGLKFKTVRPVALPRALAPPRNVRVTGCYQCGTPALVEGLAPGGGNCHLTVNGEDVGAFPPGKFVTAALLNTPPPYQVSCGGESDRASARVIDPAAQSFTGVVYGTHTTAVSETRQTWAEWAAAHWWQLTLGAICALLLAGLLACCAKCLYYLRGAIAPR

The target is the same in test [2]. Put plainly: cross-linking + co-IP; BHK-21 cells 42 h post-electroporation with WT or mutant viral RNA cross-linked with 1 mM DSP in PBS, 10 min, room temperature, quenched with 125 mM glycine; lysis buffer 2 (10 mM sodium phosphate pH 7.4, 50 mM NaCl, 1% Triton X-100); IP with mAb E1-20 or control mAb; cross-link reversed by DTT; western blot with RuV pAb.

Results are given in words; binding and its absence hold for the method and conditions named. Binding seen in cells or lysates may run through a third protein. Some entries that bind do so weakly or less than the wild type.

In the case of “Rubella virus E2 envelope glycoprotein, wild type (from UniProt P08563 301-582)”, the binding entry in test [1] and in test [2] was “binds” throughout.

For the origin of these results see publication PMC11481484.
